The values that follow come from paper PMC7948647, “Region 4 of the RNA polymerase σ subunit counteracts pausing during initial transcription”.

The exact form of at least one protein or probe is not confirmed. For some of these results: A weaker result is weaker than the reference pair of the same experiment. For some of these results: At least one verdict rests on a figure or table, not on a statement of the authors.

Assay in all cases: pull-down (Ni-agarose RNA retention)
Data set [1] has as its system RNA polymerase core (EcoRNAP) + sigma70 delta4. Particulars: similar result to LDT; 40 mM HEPES pH 7.9, 5 mM MgCl2, 50 mM NaCl, 5% glycerol; binding to Ni-NTA at 18 C, washes with 250 mM NaCl (1 M for core controls), labeling at 22 C; recombinant protein; protein details: C-terminal 6xHis on rpoC,N-terminal 6xHis; label: [alpha-32P]-UTP added after binding; letters put together from the description.

Data set [2] has as its system RNA polymerase core (EcoRNAP) + sigma70. Particulars: similar result to LDT; 40 mM HEPES pH 7.9, 5 mM MgCl2, 50 mM NaCl, 5% glycerol; binding to Ni-NTA at 18 C, washes with 250 mM NaCl (1 M for core controls), labeling at 22 C; recombinant protein; protein details: C-terminal 6xHis on rpoC,N-terminal 6xHis; label: [alpha-32P]-UTP added after binding; letters put together from the description.

Data set [3] relates to RNA polymerase core (EcoRNAP) (Escherichia coli). Particulars: 1 M NaCl wash, reduced retention; 40 mM HEPES pH 7.9, 5 mM MgCl2, 50 mM NaCl, 5% glycerol; binding to Ni-NTA at 18 C, washes with 250 mM NaCl (1 M for core controls), labeling at 22 C; recombinant protein; protein details: C-terminal 6xHis on rpoC; label: [alpha-32P]-UTP added after binding; letters put together from the description.

“UCGC / TGCAATTGTCAGCGACTCA / ACAATTGCA [SDT scaffold + pRNA4]”: the binding result is listed as “binds more weakly” in data set [1] and “binds” in data set [2].
Turning to “GUCGC / TGCAATTGTCAGCGACTCA / ACAATTGCA [SDT scaffold + pRNA5]”, the binding result in data set [3] is “binds more weakly”.
Take “AGUCGC / TGCAATTGTCAGCGACTCA / ACAATTGCA [SDT scaffold + pRNA6]”: the binding result in data set [3] is recorded as “binds more weakly”.
